Our source for the binding values is paper doi:10.1101/2024.07.03.601947.

Amino acid sequences for entries named in this document (tags omitted).
UniProt Q9NQS7: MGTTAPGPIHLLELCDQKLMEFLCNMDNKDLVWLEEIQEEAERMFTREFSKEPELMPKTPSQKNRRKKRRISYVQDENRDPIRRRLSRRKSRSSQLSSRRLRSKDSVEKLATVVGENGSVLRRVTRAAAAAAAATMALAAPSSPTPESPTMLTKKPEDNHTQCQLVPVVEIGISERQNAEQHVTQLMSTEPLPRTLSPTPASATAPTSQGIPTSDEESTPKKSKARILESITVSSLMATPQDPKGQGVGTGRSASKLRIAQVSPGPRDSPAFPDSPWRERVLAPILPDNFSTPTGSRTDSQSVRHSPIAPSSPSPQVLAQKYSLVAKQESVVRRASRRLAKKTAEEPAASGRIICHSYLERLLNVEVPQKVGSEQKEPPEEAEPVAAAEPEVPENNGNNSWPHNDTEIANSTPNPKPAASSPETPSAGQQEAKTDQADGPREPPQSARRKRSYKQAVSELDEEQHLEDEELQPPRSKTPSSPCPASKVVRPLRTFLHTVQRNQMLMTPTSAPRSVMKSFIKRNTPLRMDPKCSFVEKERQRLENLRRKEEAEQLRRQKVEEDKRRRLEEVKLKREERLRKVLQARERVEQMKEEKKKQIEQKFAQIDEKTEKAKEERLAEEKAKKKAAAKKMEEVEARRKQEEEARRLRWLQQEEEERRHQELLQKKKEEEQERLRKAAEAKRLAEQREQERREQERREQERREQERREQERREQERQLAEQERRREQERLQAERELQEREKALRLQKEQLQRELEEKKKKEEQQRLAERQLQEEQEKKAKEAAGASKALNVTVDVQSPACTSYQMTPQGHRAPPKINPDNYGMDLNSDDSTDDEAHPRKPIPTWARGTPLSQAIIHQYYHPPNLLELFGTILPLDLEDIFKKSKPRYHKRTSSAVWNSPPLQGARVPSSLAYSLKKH

No constants are given. Whether binding was seen depends on the method and setting. Binding seen in cells or lysates may run through a third protein. A yes stands for co-enrichment or nearness to the bait. Other partners may have been found. A no says only that the protein was not detected with the bait.

The target in the assay is Flag-TurboID-Plk1 PBD MUTANT (H538A, K540A) (UniProt P53350). The experiment in a line: proximity labelling.

INCENP (from UniProt Q9NQS7 1-918): the binding result is reported as “no binding”.
